{"source": "patent US20020182694A1", "about": "“Novel gene and polypeptide which opposes the Fas pathway” (priority 2001, published 2002)", "system": "HeLa cells", "assay": "Fas induced killing of HeLa cells treated with pharmacological agents, count of viable trypan blue excluding cells", "type": "cell-based, human", "settings": "anti-Fas antibody treated HeLa cells; NAC: 50 ng/ml anti-Fas, 5 days; FIG. 6, 8E, 8G, 8H", "protocol": "HeLa cells, 1.6×10^5 cells/well were plated in 6 wells plates. 20-24 hours later cells were treated with various concentrations of sulfinpyrazone (Sigma/Aldrich) in 1% DMSO for 15 minutes prior to the addition of 200 ng/ml anti-Fas antibody (clone CH-11, Kamiya Biomedical Company). The number of viable, trypan blue (Gibco/BRL) excluding cells that remained attached to the plate following rinsing with PBS was counted 17 hours post treatment. […]", "note": "At least one structure is not confirmed: it was looked up by name or label, or the drawing left a doubt.", "data": [{"smiles": "O=C1C(CC[S+]([O-])c2ccccc2)C(=O)N(c2ccccc2)N1c1ccccc1", "note": "(stereo not shown) [sulfinpyrazone]", "values": [{"measurement": "effect on Fas induced PCD of HeLa cells, in words (viable cell count)", "result": "sensitizes"}]}]}
